Reference: PMC10119292, “Characterization of a fold in TANGO1 evolved from SH3 domains for the export of bulky cargos” (Nature Communications, 2023)
These are yes or no findings as the source states them, for the method shown.

The chains behind the UniProt entries cited, without tags or fusion partners. Where a name states a change or a piece, a line headed by the entry shows the natural chain unless it says otherwise.
UniProt P27986: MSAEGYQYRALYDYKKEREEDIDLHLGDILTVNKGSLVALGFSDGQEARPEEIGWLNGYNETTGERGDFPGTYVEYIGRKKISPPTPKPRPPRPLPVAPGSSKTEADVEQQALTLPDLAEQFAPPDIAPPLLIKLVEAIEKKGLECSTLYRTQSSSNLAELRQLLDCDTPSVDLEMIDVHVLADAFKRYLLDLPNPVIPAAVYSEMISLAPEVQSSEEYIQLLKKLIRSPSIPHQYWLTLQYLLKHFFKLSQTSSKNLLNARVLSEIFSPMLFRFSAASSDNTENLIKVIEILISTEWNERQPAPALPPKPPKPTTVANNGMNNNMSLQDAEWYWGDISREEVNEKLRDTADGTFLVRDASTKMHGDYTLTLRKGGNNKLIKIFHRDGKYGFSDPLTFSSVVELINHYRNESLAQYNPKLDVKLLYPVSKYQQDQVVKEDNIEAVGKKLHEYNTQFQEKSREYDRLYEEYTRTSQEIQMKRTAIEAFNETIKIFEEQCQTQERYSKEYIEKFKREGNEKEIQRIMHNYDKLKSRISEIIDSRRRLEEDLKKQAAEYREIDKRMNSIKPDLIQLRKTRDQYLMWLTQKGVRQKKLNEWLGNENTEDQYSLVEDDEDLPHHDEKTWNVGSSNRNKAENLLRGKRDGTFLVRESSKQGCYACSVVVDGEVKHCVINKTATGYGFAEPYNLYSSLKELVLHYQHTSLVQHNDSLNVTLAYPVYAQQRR

What was measured:
[1] = target: T1, human Otoraplin, residues 18-128 (human, UniProt Q9NRC9 18-128); assay: condition: 10-fold molar excess of peptide over 165 µM protein; NMR titration; 1H-15N HSQC of [U-15N]-enriched domain (160-215 µM) without and with 10-fold molar excess of peptide (24-fold for MIA with SOS1 peptide); 298 K; PBS pH 7.4 (hsTANGO1(21-131): 25 mM HEPES pH 7.4, 150 mM NaCl, 1% CHAPS); both purified
T1 construct: Otoraplin, human, UniProt Q9NRC9, residues 18-128; [U-15N]-enriched for the NMR titrations; also called Otoraplin (18-128); not shown: His-tag, N-terminal, cleaved
T1 sequence (looked up): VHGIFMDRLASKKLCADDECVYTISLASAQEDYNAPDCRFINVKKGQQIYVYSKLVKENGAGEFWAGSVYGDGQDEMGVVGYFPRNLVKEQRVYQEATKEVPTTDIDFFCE

[2] = target: T2, human MIA protein, residues 19-131 (human) (UniProt Q16674); assay: condition: 10-fold molar excess of peptide over 182 µM protein; NMR titration; 1H-15N HSQC of [U-15N]-enriched domain (160-215 µM) without and with 10-fold molar excess of peptide (24-fold for MIA with SOS1 peptide); 298 K; PBS pH 7.4 (hsTANGO1(21-131): 25 mM HEPES pH 7.4, 150 mM NaCl, 1% CHAPS); both purified
T2 sequence: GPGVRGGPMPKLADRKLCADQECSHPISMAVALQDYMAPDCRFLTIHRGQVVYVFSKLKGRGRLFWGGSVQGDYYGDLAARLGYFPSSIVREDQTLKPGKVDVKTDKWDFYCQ

[3] = target: T3, human TALI MOTH domain, residues 23-123 (human) (UniProt Q96PC5); assay: condition: 10-fold molar excess of peptide over 196 µM protein; NMR titration; 1H-15N HSQC of [U-15N]-enriched domain (160-215 µM) without and with 10-fold molar excess of peptide (24-fold for MIA with SOS1 peptide); 298 K; PBS pH 7.4 (hsTANGO1(21-131): 25 mM HEPES pH 7.4, 150 mM NaCl, 1% CHAPS); both purified
T3 sequence: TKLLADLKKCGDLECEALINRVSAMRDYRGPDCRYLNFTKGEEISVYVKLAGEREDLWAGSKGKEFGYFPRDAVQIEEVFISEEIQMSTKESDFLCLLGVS

[4] = target: T3, human TALI MOTH domain, residues 23-123 (human); assay: condition: 10-fold molar excess of peptide over 200 µM protein; NMR titration; 1H-15N HSQC of [U-15N]-enriched domain (160-215 µM) without and with 10-fold molar excess of peptide (24-fold for MIA with SOS1 peptide); 298 K; PBS pH 7.4 (hsTANGO1(21-131): 25 mM HEPES pH 7.4, 150 mM NaCl, 1% CHAPS); both purified
[5] = target: T2, human MIA protein, residues 19-131 (human); assay: condition: 24-fold molar excess of peptide over 200 µM protein; NMR titration; 1H-15N HSQC of [U-15N]-enriched domain (160-215 µM) without and with 10-fold molar excess of peptide (24-fold for MIA with SOS1 peptide); 298 K; PBS pH 7.4 (hsTANGO1(21-131): 25 mM HEPES pH 7.4, 150 mM NaCl, 1% CHAPS); both purified
[6] = target: T4, Drosophila melanogaster TANGO1 cargo-recognition domain, residues 30-139 (Drosophila melanogaster) (UniProt Q9VMA7); assay: NMR titration; 1H-15N HSQC of [U-15N]-enriched domain (160-215 µM) without and with 10-fold molar excess of peptide (24-fold for MIA with SOS1 peptide); 298 K; PBS pH 7.4 (hsTANGO1(21-131): 25 mM HEPES pH 7.4, 150 mM NaCl, 1% CHAPS); both purified
T4 sequence: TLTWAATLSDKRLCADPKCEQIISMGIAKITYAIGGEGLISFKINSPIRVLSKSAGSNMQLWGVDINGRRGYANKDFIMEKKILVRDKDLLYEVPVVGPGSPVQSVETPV

Measured: binding

p85α(91-104), class I PPII helix peptide (from UniProt P27986 91-104)
no binding: [1] | [2] | [3]

B1: SOS1 (1149-1158), class II PPII helix peptide (peptide, UniProt Q07889 1149-1158, looked up)
peptide: VPPPVPPRRR
notes: SOS1, residues 1149-1158; also called class II ligand; PPII class II ligand; source: synthetic peptide
no binding: [4] | [5] | [6]
